# Assay results as given in article PMC7819943, “Rice protein-binding microarrays: a tool to detect cis-acting elements near promoter regions in rice”.
# By UniProt entry, the sequences of proteins in these tests, tags left out.
# UniProt Q0JBA9, entry or part of it: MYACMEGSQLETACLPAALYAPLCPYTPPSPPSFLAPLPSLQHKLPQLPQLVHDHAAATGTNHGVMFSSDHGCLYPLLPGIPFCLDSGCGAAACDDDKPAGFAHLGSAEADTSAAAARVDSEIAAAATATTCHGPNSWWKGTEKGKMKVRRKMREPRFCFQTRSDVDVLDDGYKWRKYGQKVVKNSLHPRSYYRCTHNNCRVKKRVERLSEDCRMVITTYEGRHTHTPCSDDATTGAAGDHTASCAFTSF
# The other results are listed elsewhere or left out.
# Biological target: OsWRKY34 (Oryza sativa, UniProt Q0JBA9 1-250)
# Test: protein-binding microarray (RPBM); PBS, 2% BSA, 51.3 ng/ul salmon testes DNA, 50 uM zinc acetate, 200 nM TF, 25 C, 1 h; high values mean tight binding
# Details: protein: recombinant; tags: N-terminal polyhistidine and DsRed monomer fusion (pET32a); label: CyDye5-dUTP incorporated in the synthesized complementary strand; 3' TTTTT single-stranded linker to array surface; dsDNA, one strand shown
# Outline: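 For the binding signal, per-feature fluorescence intensity was read in arbitrary units on an Axon 4000B scanner. Before scanning, a 2% BSA-blocked custom Agilent array made double-stranded with Cy5-dUTP was washed after 1 h at 25 °C with 200 nM protein and 50 µM zinc acetate. The proteins were Ni–NTA-purified transcription factors with N-terminal polyhistidine and DsRed fusions, expressed in E. coli BL21-CodonPlus.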
row,Sequence,binding signal
1,CCCTTTGTCCTGCAGTACGTTTTTCCTTGCATTTTTCTTTCGGAGTCACCTAGTGCAG,19700 fluorescence intensity (a.u.)
2,ATCACGAGGCTCCAAGCAAGCGCTCTCAGTCTCTTATAACCGGAGTCACCTAGTGCAG,8230 fluorescence intensity (a.u.)
3,GCGCTTAACTTTGATCGTCCGTTTTATTTGAAAAATTTTTCGGAGTCACCTAGTGCAG,9160 fluorescence intensity (a.u.)
4,AAATGTTGGTGGGGAAGTTGTTATATTTTGGATAAATCCTCGGAGTCACCTAGTGCAG,12800 fluorescence intensity (a.u.)
5,ATCCTATATTTGTTGCAGTTCATTCATTTCATCACCAGTTCGGAGTCACCTAGTGCAG,8840 fluorescence intensity (a.u.)
6,GAACTTAATCCATTTTTTTTTTATCTCTGACAGCATCCGACGGAGTCACCTAGTGCAG,9160 fluorescence intensity (a.u.)
7,AATGCTTTCTTTCACTTCTTCCATTCCTCTGTCCACAAAACGGAGTCACCTAGTGCAG,8670 fluorescence intensity (a.u.)
8,GGTCTCCGTCCAAGCAGTGATATTTTTGGGTTGGGTTTGGCGGAGTCACCTAGTGCAG,8340 fluorescence intensity (a.u.)
9,TCCCTTGATGCGAACAAAATGCTGTCTGTACATTTTTTCGCGGAGTCACCTAGTGCAG,12000 fluorescence intensity (a.u.)
10,AATAACTTTCCAGGCAAATATATGCATGATGTTTTTGTTTCGGAGTCACCTAGTGCAG,8040 fluorescence intensity (a.u.)
11,CGTTGTATTCGTTCCAGTCCCAAAACCAGCGAGATGGATGCGGAGTCACCTAGTGCAG,8570 fluorescence intensity (a.u.)
12,ATTTTATATTTTATTACTGCTCCACTCCACTCCGCATTTCCGGAGTCACCTAGTGCAG,10000 fluorescence intensity (a.u.)
13,AATCCTGCACTATTCATTTTTCCCATATACCTTCACTTCTCGGAGTCACCTAGTGCAG,12000 fluorescence intensity (a.u.)
14,AGGCGGGATGGTCGCGGTTGGGGTTTCCTTCGTTTCGTTGCGGAGTCACCTAGTGCAG,13900 fluorescence intensity (a.u.)
15,GAATCATCAAACCACACCAATCGCCTCCAACATCATCACACGGAGTCACCTAGTGCAG,8430 fluorescence intensity (a.u.)
16,GGTTGTACTATGCCAATTTGAACCAGCTGTCGATTTATGTCGGAGTCACCTAGTGCAG,9220 fluorescence intensity (a.u.)
17,TTGCTCTATCAGGATATTACGGTTGTCAATTACAAAGGGGCGGAGTCACCTAGTGCAG,8790 fluorescence intensity (a.u.)
18,CGCTGACCACGTTGACCATCTTCCATTTCTTCCCCTCGCCCGGAGTCACCTAGTGCAG,18600 fluorescence intensity (a.u.)
19,AAAATCCTTGTCTCCGTCTCTTTTATCTCAATCTCGCATACGGAGTCACCTAGTGCAG,11400 fluorescence intensity (a.u.)
20,TATATTTTATTTTAGTCATGGTCGTATCTAATTTGTCTTCCGGAGTCACCTAGTGCAG,12100 fluorescence intensity (a.u.)
21,TCTGACACTGGGCCCCACCTGCCAGTGTCTGCGGCTTCCACGGAGTCACCTAGTGCAG,8050 fluorescence intensity (a.u.)
22,GGTGAAAGGGGTCTTTAGTTTATATGGGATAAAATGACGACGGAGTCACCTAGTGCAG,8300 fluorescence intensity (a.u.)
23,TTCGTTTTGACTTTTTTCTTAGTAAAACTTTTATGTTTGACGGAGTCACCTAGTGCAG,11600 fluorescence intensity (a.u.)

# Reformatted tab-delimited: entries from further up
row	Sequence	binding signal
14	AGGCGGGATGGTCGCGGTTGGGGTTTCCTTCGTTTCGTTGCGGAGTCACCTAGTGCAG	13900 fluorescence intensity (a.u.)
17	TTGCTCTATCAGGATATTACGGTTGTCAATTACAAAGGGGCGGAGTCACCTAGTGCAG	8790 fluorescence intensity (a.u.)
